Laboratory results taken from article PMC11759936.
Results are given in words; binding and its absence hold for the method and conditions named. For some of these results: Binding calls can cover weak binding; strength is not graded here. Tags and fused reporters may be left off the sequences shown.

How the values were obtained:
[1] = biological target: OsHsp40-1 (yeast two-hybrid fusion) (rice (Oryza sativa L.)); experiment: two-hybrid; yeast two-hybrid (Y2H); screens and tests of full-length and truncated forms
[2] = biological target: OsHsp70-2 (yeast two-hybrid fusion) (rice (Oryza sativa L.)); experiment: as above

Row | binding [1] | binding [2] | Binder
1 | binds | no binding | OsPPDKB (yeast two-hybrid fusion) (enzyme, UniProt Q6AVA8 1-947) MPSVSRAVCVQRASGNNGRRCRDGAAAAGRRSVVAQRARHGKPEVAIRSGSGGSARGGHCSPLRAVAAPIPTTKKRVFHFGKGKSEGNKAMKDLLGGKGANLAEMASIGLSVPPGFTVSTEACQQYQAAGKTLPAGLWEEIVEGLQWVEEYMAARLGDPARPLLLSVRSGAAVSMPGMMDTVLNLGLNDEVAAGLAAKSGDRFAYDSYRRFLDMFGNVVMDIPHALFEEKLEAMKAVKGLHNDTDLTATDLKELVAQYKDVYVEAKGEPFPSDPKKQLQLAVLAVFNSWDSPRAIKYRSINKITGLKGTAVNVQTMVFGNMGNTSGTGVLFTRNPSTGEKKLYGEFLVNAQGEDVVAGIRTPEDLDAMRDHMPEPYEELVENCKILESHYKEMMDIEFTVQENRLWMLQCRTGKRTGKGAVKIAVDMVNEGLVERRTALKMVEPGHLDQLLHPQFENPSGYKDKVIATGLPASPGAAVGQIVFTAEDAEAWHAQGKDVILVRTETSPEDVGGMHAAVGILTARGGMTSHAAVVARGWGKCCVSGCSSVRVNDASKIVVIEDKALHEGEWLSLNGSTGEVIIGKQPLCPPALSGDLETFMSWVDEVRKLKVMANADTPEDATTARQNGAEGIGLCRTEHMFFASDERIKAVRQMIMASSLELRQKALDRLLPYQRSDFEGIFRAMDGLPVTIRLLDPPLHEFLPEGHVEDMVRELCSETGAAQDDVLARVEKLSEVNPMLGFRGCRLGISYPELTEMQARAIFEAAITMTNQGIQVFPEIMVPLVGTPQELGHQVDVIRQIANKVFTDMGKTIGYKVGTMIEIPRAALVADEIAEQAEFFSFGTNDLTQMTFGYSRDDVGKFLPIYLSQGILQHDPFEVLDQRGVGELVKLATERGRKARPNLKVGICGEHGGEPLSVAFFAKAGLDYVSCSPFRVPIARLAAAQVLL
2 | binds | no binding | OsGBSSI (yeast two-hybrid fusion) (enzyme, UniProt Q0DEV5 1-609) MSALTTSQLATSATGFGIADRSAPSSLLRHGFQGLKPRSPAGGDATSLSVTTSARATPKQQRSVQRGSRRFPSVVVYATGAGMNVVFVGAEMAPWSKTGGLGDVLGGLPPAMAANGHRVMVISPRYDQYKDAWDTSVVAEIKVADRYERVRFFHCYKRGVDRVFIDHPSFLEKVWGKTGEKIYGPDTGVDYKDNQMRFSLLCQAALEAPRILNLNNNPYFKGTYGEDVVFVCNDWHTGPLASYLKNNYQPNGIYRNAKVAFCIHNISYQGRFAFEDYPELNLSERFRSSFDFIDGYDTPVEGRKINWMKAGILEADRVLTVSPYYAEELISGIARGCELDNIMRLTGITGIVNGMDVSEWDPSKDKYITAKYDATTAIEAKALNKEALQAEAGLPVDRKIPLIAFIGRLEEQKGPDVMAAAIPELMQEDVQIVLLGTGKKKFEKLLKSMEEKYPGKVRAVVKFNAPLAHLIMAGADVLAVPSRFEPCGLIQLQGMRYGTPCACASTGGLVDTVIEGKTGFHMGRLSVDCKVVEPSDVKKVAATLKRAIKVVGTPAYEEMVRNCMNQDLSWKGPAKNWENVLLGLGVAGSAPGIEGDEIAPLAKENVAAP
